# Test results published in paper PMC7819943, “Rice protein-binding microarrays: a tool to detect cis-acting elements near promoter regions in rice”.
# Some of the results follow.
# Target: T1, OsSMF1 (Oryza sativa, UniProt Q6ZLB0 1-436)
# T1 sequence: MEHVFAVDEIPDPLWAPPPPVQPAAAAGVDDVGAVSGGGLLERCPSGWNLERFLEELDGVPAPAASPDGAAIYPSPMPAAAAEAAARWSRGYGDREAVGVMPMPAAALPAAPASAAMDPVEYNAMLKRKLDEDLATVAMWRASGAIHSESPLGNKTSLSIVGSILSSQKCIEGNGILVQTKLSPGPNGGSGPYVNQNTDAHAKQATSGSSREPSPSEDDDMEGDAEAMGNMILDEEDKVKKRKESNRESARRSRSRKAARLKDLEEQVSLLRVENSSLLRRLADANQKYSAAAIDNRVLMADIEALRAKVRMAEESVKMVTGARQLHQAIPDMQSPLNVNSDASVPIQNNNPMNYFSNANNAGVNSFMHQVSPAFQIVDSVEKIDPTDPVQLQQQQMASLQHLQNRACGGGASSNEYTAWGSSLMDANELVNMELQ
# Assay: protein-binding microarray (RPBM); PBS, 2% BSA, 51.3 ng/ul salmon testes DNA, 50 uM zinc acetate, 200 nM TF, 25 C, 1 h; high values mean tight binding
# Conditions: protein: recombinant; tags: N-terminal polyhistidine and DsRed monomer fusion (pET32a); chain copies: 2; label: CyDye5-dUTP incorporated in the synthesized complementary strand; 3' TTTTT single-stranded linker to array surface; dsDNA, one strand shown
# How it was run: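 In PBS with 2% BSA, salmon testes DNA and 50 µM zinc acetate, 200 nM protein was incubated on a custom Agilent array at 25 °C for 1 h and then washed off. The array had been made double-stranded by primer extension with Cy5-dUTP and blocked with 2% BSA. The proteins were transcription factors fused N-terminally to polyhistidine and DsRed, expressed in E. coli BL21-CodonPlus and purified on Ni–NTA. The binding signal is per-feature fluorescence intensity (arbitrary units) from an Axon 4000B scanner.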
row,Sequence,binding signal
1,GAATTGCCACGTAAGCACCACGTCAGTGCCATGTCAGATGCGGAGTCACCTAGTGCAG,52400 fluorescence intensity (a.u.)
2,CGACGACGCCACCAAGGCACCAACTCCACGTCTCCGCCCCCGGAGTCACCTAGTGCAG,4730 fluorescence intensity (a.u.)
3,CTGTGACGACGTTGCTTGCCGCCTTGATGAGTCACTGCATCGGAGTCACCTAGTGCAG,11000 fluorescence intensity (a.u.)
4,GAGCAGGAGGAGCTGAGCGACTCCGAGTCGGGCGCCGAGTCGGAGTCACCTAGTGCAG,40100 fluorescence intensity (a.u.)
5,TCCATGTCCACCTCCTCCCCATCACCCCACCATTGCCTCGCGGAGTCACCTAGTGCAG,4210 fluorescence intensity (a.u.)
6,GTAACAGGTAAACTGAAGATTACAGTGACGCATATTCACACGGAGTCACCTAGTGCAG,3620 fluorescence intensity (a.u.)
7,TTGTGATTAGCCACATCAACCAAAAGCCTGTGTGTTTTGTCGGAGTCACCTAGTGCAG,4520 fluorescence intensity (a.u.)
8,GTTTCCATTTTCCTTGCATCCATCTATAAAGATAGCTAGGCGGAGTCACCTAGTGCAG,34700 fluorescence intensity (a.u.)
9,TTTCTTAATCACGTCATTTATTCAATTTGACTTAGCCCGGCGGAGTCACCTAGTGCAG,5070 fluorescence intensity (a.u.)
10,AAAATAACCTCGAGCGAACACGATGACACGACGAGCGGCACGGAGTCACCTAGTGCAG,3710 fluorescence intensity (a.u.)
11,CCCCTGACGCGGCGACGCATATCCACATCGCCTTCCGGCCCGGAGTCACCTAGTGCAG,5850 fluorescence intensity (a.u.)
12,AGTATATTAGGGTGTGTTTGGTTCCACGTCAAAATTAGAACGGAGTCACCTAGTGCAG,4840 fluorescence intensity (a.u.)
13,CTAATTAAACGACGCGATTCAAATAAAATTGGGAGTACATCGGAGTCACCTAGTGCAG,30500 fluorescence intensity (a.u.)
14,AGCAAGCTCATCGACGTCGCCTCTGTCGACGTGTGCCTCCCGGAGTCACCTAGTGCAG,5860 fluorescence intensity (a.u.)
15,GTAACTCAATATCTGTGGGTGACGTTAATACATACATATCCGGAGTCACCTAGTGCAG,3450 fluorescence intensity (a.u.)
16,ATGGTTGACTGGCTGGTTCCCTGTGTCTGTCTCACCTTTGCGGAGTCACCTAGTGCAG,3160 fluorescence intensity (a.u.)
17,CTTATCAGCCCCTATCTATTTACATGTCAGCCCTTGCATTCGGAGTCACCTAGTGCAG,4080 fluorescence intensity (a.u.)
18,CATGGATTAAGCCCACCTGCGGCCGCCGAACAGTGGCGTCCGGAGTCACCTAGTGCAG,3530 fluorescence intensity (a.u.)
19,GATGAATTGAAGTTAGTAGTCGGCTGTATTATTGAACTTGCGGAGTCACCTAGTGCAG,3320 fluorescence intensity (a.u.)
20,GGCGAAAATGCGAAACGCATGTACGCATGTGTCACACGTGCGGAGTCACCTAGTGCAG,5080 fluorescence intensity (a.u.)
21,TAAACATCTGATTAGCTAAAAGTGTTTAATTAGATTTCCACGGAGTCACCTAGTGCAG,3480 fluorescence intensity (a.u.)

# 2 entries drawn at random from those above:
row,Sequence,binding signal
10,AAAATAACCTCGAGCGAACACGATGACACGACGAGCGGCACGGAGTCACCTAGTGCAG,3710 fluorescence intensity (a.u.)
7,TTGTGATTAGCCACATCAACCAAAAGCCTGTGTGTTTTGTCGGAGTCACCTAGTGCAG,4520 fluorescence intensity (a.u.)

# (listing goes on)

row,Sequence,binding signal
1,GTGCAAATGTACACAAAACCTCTTTCATCAAGCTACGTGGCGGAGTCACCTAGTGCAG,4390 fluorescence intensity (a.u.)
2,CTGCCTCCTGTTCGCGCTCCACGCCACCACTGCCGACGAGCGGAGTCACCTAGTGCAG,4300 fluorescence intensity (a.u.)
3,TCGCGAATCTGGATTCTGGAGAGACCGTGAGTCACCGACGCGGAGTCACCTAGTGCAG,8020 fluorescence intensity (a.u.)
4,TAATCCCACCACGCACCGGAGCGAGAAGAAGAAGAACCCACGGAGTCACCTAGTGCAG,15100 fluorescence intensity (a.u.)
5,ATTCCCCGAGGCCCGCGTGTCAGCGACACGGGAGCCGGAACGGAGTCACCTAGTGCAG,3860 fluorescence intensity (a.u.)
6,TAGCCGATCCTCCACGTGTGCTCCTCTCCCCACTTGTCACCGGAGTCACCTAGTGCAG,15800 fluorescence intensity (a.u.)
7,CTTCGAAGATACTCATAGGGGTAGGGTTTACGTGCGTGCGCGGAGTCACCTAGTGCAG,3140 fluorescence intensity (a.u.)
8,CTTCTCCTGCATGGCAAGTCGCTGATCACAACTACGCATCCGGAGTCACCTAGTGCAG,3610 fluorescence intensity (a.u.)
9,AGAAGGAGAGGAGAGAGGAGGTGGTGTACTGGTGCGTGTGCGGAGTCACCTAGTGCAG,3540 fluorescence intensity (a.u.)
10,ACACATCAATGTCGTTACCAGGTCACCATGTGCATCTACACGGAGTCACCTAGTGCAG,5520 fluorescence intensity (a.u.)
11,ATTGATCTACGTGGTCCTGCTGATCTGTACTTTGGGTCTACGGAGTCACCTAGTGCAG,9280 fluorescence intensity (a.u.)
12,ATTTGGTATGACTTGGCTTCAAACCAAGATGGTCCGGAGTCGGAGTCACCTAGTGCAG,5390 fluorescence intensity (a.u.)
13,AGAAATAAAGCCACATATGTCCAACATTCTACCCATGGCGCGGAGTCACCTAGTGCAG,3480 fluorescence intensity (a.u.)
14,AGCTCGTCAGGTCTCTCCACCTCAGGGAGCTCAAGGCCCTCGGAGTCACCTAGTGCAG,3890 fluorescence intensity (a.u.)
15,ACGCTAGCACGTCATTACTGTTTCTCACCGATCACAAGGGCGGAGTCACCTAGTGCAG,6420 fluorescence intensity (a.u.)
16,CGGCGTGGCACTGTGACGTGGCAACGGTTATGCGGTTATGCGGAGTCACCTAGTGCAG,10600 fluorescence intensity (a.u.)
17,AGAGGTACTATAACCTAATCATTTCACTTGTGCCTGTTTTCGGAGTCACCTAGTGCAG,7920 fluorescence intensity (a.u.)
18,CGGTCTTGCGCGAAAACCCCGTCGTCACCTACAACGAACTCGGAGTCACCTAGTGCAG,3980 fluorescence intensity (a.u.)
19,TCACCGTGCCACGTGGCCGACGGCATTGCGCGCGCGGCAGCGGAGTCACCTAGTGCAG,9860 fluorescence intensity (a.u.)
20,TAAAATTTCTGTCCATCGTGACGCACGCAGGTGATCTTCGCGGAGTCACCTAGTGCAG,4910 fluorescence intensity (a.u.)
21,AAGGGGAAGGGTTGGTTCGGGCTGTGGGACAACAGCTCGGCGGAGTCACCTAGTGCAG,4370 fluorescence intensity (a.u.)
